Test results as given in the supplement of paper PMC10849652.
The list shows a part of the results.

Chains of the proteins cited; added tags and fusions are not shown. Lines headed by an entry give the natural chain unless they say otherwise; changes in a name come on top.
UniProt Q53FT3: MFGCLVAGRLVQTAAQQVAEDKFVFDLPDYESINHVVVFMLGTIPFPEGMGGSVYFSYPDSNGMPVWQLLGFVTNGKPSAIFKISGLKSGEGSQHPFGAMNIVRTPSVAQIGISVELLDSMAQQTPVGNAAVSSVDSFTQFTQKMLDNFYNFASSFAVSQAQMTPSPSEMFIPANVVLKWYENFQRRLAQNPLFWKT
UniProt Q8TB92: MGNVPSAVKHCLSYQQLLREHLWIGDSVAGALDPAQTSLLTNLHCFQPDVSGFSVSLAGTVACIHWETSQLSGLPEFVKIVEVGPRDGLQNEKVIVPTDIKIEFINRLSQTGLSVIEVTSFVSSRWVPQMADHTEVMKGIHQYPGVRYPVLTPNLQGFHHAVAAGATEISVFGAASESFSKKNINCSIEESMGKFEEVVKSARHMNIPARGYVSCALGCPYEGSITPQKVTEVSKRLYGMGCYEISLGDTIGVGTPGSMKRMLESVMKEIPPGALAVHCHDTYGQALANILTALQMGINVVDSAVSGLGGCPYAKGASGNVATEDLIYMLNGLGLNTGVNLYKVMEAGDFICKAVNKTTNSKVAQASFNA
UniProt P11142, whole entry, looked up: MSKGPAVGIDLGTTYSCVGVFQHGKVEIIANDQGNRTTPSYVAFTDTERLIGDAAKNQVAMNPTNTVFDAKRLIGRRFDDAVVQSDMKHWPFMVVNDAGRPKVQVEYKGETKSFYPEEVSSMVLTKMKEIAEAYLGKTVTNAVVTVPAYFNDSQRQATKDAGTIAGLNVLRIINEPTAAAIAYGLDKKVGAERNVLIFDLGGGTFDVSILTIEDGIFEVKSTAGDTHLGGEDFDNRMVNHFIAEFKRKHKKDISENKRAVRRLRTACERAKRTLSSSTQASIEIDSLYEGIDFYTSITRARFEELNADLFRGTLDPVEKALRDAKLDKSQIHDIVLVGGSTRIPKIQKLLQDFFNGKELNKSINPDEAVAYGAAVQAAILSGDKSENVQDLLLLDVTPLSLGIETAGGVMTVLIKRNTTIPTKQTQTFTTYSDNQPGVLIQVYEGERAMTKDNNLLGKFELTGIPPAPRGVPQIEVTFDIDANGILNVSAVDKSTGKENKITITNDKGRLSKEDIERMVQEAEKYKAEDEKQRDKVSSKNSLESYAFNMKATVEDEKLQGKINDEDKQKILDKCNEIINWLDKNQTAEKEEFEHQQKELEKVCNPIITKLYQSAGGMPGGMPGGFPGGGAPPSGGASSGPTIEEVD
UniProt Q9UGU5: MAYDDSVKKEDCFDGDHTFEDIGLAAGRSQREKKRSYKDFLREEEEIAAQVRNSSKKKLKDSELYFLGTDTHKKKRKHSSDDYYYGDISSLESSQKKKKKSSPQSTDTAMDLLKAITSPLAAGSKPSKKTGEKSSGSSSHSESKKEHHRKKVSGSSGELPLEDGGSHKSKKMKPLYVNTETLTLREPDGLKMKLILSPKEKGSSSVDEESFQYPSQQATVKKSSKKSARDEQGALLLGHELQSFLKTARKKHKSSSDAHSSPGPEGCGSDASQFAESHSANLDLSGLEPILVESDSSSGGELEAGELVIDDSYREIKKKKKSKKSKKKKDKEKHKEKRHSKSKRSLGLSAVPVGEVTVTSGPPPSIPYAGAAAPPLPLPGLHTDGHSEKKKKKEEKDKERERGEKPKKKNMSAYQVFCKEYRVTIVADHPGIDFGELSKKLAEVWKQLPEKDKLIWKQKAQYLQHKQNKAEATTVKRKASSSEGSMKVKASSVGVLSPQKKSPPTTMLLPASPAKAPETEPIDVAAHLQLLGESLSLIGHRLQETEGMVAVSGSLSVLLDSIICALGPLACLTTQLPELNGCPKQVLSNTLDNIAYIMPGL
UniProt Q9BUJ2: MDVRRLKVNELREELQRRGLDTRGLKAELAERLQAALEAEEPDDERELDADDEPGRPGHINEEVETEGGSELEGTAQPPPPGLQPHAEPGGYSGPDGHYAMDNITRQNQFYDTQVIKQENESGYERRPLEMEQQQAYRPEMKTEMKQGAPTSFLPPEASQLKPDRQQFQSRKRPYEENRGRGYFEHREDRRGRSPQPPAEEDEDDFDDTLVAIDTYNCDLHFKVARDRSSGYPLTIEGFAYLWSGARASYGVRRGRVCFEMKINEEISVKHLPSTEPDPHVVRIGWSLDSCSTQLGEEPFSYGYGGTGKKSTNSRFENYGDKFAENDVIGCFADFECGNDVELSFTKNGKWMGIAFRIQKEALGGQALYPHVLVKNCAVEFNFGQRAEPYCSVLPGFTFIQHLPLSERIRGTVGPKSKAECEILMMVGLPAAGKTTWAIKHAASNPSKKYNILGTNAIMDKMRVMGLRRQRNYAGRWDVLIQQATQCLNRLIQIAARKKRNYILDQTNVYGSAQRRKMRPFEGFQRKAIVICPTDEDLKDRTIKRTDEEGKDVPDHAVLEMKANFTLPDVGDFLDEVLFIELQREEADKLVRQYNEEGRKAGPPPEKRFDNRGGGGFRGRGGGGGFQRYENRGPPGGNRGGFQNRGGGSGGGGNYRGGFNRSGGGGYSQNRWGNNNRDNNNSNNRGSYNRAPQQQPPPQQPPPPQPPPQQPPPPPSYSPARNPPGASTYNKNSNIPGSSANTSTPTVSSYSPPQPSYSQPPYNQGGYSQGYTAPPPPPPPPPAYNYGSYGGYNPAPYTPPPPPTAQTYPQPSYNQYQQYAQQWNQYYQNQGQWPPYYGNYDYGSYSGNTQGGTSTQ
UniProt P07910: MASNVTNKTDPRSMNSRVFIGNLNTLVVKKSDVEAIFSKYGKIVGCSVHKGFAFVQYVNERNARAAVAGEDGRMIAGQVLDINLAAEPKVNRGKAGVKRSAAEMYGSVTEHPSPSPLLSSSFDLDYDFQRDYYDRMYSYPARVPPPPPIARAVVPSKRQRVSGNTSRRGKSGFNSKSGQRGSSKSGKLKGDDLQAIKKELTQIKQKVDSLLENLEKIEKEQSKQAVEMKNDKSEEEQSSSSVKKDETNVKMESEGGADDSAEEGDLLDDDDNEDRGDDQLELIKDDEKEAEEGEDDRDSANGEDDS
UniProt P14866: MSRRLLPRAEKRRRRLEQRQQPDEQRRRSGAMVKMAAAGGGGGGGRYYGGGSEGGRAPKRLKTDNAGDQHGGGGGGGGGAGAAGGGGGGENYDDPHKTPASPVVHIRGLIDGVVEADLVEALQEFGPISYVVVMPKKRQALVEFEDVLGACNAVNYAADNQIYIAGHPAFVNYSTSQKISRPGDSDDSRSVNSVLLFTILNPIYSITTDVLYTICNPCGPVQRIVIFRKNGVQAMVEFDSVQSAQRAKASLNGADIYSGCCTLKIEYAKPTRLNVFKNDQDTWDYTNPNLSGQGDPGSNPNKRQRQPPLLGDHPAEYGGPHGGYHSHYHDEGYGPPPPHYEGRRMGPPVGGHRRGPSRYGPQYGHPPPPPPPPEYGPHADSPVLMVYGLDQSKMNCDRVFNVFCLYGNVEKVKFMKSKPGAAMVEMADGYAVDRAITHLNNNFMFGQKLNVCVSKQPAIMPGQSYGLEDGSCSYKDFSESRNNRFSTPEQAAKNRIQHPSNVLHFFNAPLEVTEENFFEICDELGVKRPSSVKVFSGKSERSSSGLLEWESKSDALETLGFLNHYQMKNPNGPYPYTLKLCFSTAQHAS

Assays:
Assay in all cases: log2 fold change, soluble protein after heating vs DMSO (PISA); higher = thermal stabilisation; K562 cells, 10 uM, 30 min; active = over 0.2 and 3.5 SD of the protein, either way, in both replicates (recomputed)
[1] = compound: CC[C@@H]1C(=O)N(C)c2cnc(Nc3ccc(C(=O)NC4CCN(C)CC4)cc3OC)nc2N1C1CCCC1
Procedure, shortened: (§1)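 Thermal stability values are relative to control samples and come from duplicates. They are expressed as log2 fold changes. For measurement, K562 cells (2×10^6 cells/mL) received 10 μM compound for 30 min, and aliquots were heated for 3 min over 48°C-58°C, pooled, and extracted at 4°C in PBS with 0.5% NP-40. Soluble protein, the supernatant after 21,000xg for 90 min, was quantified by TMTpro 16plex LC-MS/MS with equalised channel sums.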

volasertib = compound: CC[C@@H]1C(=O)N(C)c2cnc(Nc3ccc(C(=O)N[C@H]4CC[C@H](N5CCN(CC6CC6)CC5)CC4)cc3OC)nc2N1C(C)C [volasertib]
Procedure, shortened: as §1

[2] = compound: CC[C@H](C)N1C=C(C2=C(C=C(C=C21)C3=CN=C(C=C3)N4CCNCC4)C(=O)NCC5=C(C=C(NC5=O)C)C)C
Procedure, shortened: as §1

epoxomicin = compound: CC[C@H](C)[C@@H](C(=O)N[C@@H]([C@@H](C)O)C(=O)N[C@@H](CC(C)C)C(=O)[C@]1(CO1)C)NC(=O)[C@H]([C@@H](C)CC)N(C)C(=O)C [epoxomicin]
Procedure, shortened: as §1

[3] = compound: CCn1cc(-c2ccnc3[nH]c(-c4cccc(CN(C)C)c4)cc23)c(-c2ccc(NC(=O)N(C)C)cc2)n1
Procedure, shortened: as §1

[4] = compound: CN(C)CC(=O)Nc1ccc2[nH]c(=O)c3ccccc3c2c1
Procedure, shortened: as §1

[5] = compound: CN1C2=C(C3=C1C(=O)N(N=C3)CC4=CC(=CC=C4)N)SC(=C2)S(=O)C
Procedure, shortened: as §1

[6] = compound: CN1CCC(CNc2ccc3ncc(-c4cccc(OC(F)(F)F)c4)n3n2)CC1
Procedure, shortened: as §1

saracatinib = compound: CN1CCN(CCOc2cc(OC3CCOCC3)c3c(Nc4c(Cl)ccc5c4OCO5)ncnc3c2)CC1 [saracatinib]
Procedure, shortened: as §1

sotrastaurin = compound: CN1CCN(c2nc(C3=C(c4c[nH]c5ccccc45)C(=O)NC3=O)c3ccccc3n2)CC1 [sotrastaurin]
Procedure, shortened: as §1

Tubastatin A = compound: CN1CCc2c(c3ccccc3n2Cc2ccc(C(=O)NO)cc2)C1 [Tubastatin A]
Procedure, shortened: as §1

[7] = compound: CNC(=O)C1=CC=CC=C1NC2=NC(=NC=C2Cl)NC3=C(C=C(C=C3)N4CCOCC4)OC
Procedure, shortened: as §1

defactinib = compound: CNC(=O)c1ccc(Nc2ncc(C(F)(F)F)c(NCc3nccnc3N(C)S(C)(=O)=O)n2)cc1 [defactinib]
Procedure, shortened: as §1

rucaparib = compound: CNCc1ccc(-c2[nH]c3cc(F)cc4c3c2CCNC4=O)cc1 [rucaparib]
Procedure, shortened: as §1

[8] = compound: CNc1nc(-c2ccc3c(N)n[nH]c3c2)cc(N2C[C@@H](C(=O)NC3CCCCC3)CC[C@H]2C)n1
Procedure, shortened: as §1

encorafenib = compound: COC(=O)N[C@@H](C)CNc1nccc(-c2cn(C(C)C)nc2-c2cc(Cl)cc(NS(C)(=O)=O)c2F)n1 [encorafenib]
Procedure, shortened: as §1

[9] = compound: COC(=O)[C@H](CCSC)NC(=O)C1=C(C=C(C=C1)NC[C@H](CS)N)C2=CC=CC=C2
Procedure, shortened: as §1

[10] = compound: CCn1c(C(=O)N(C2CC2)C2CC2)cc2c3c(ncn3C)c(Nc3cc(C)n(C)n3)nc21
Procedure, shortened: as §1

rosiglitazone = compound: CN(CCOC1=CC=C(C=C1)C[C@H]2C(=O)NC(=O)S2)C3=CC=CC=N3 (racemic) [rosiglitazone]
Procedure, shortened: as §1

alvocidib = compound: CN1CC[C@H](c2c(O)cc(O)c3c(=O)cc(-c4ccccc4Cl)oc23)[C@H](O)C1 [alvocidib]
Procedure, shortened: as §1

Measured: log2 fold change

HMGN2 (UniProt P05204)
inactive: [1] -0.083 | volasertib 0.073 | [2] -0.109 | epoxomicin -0.082 | [3] -0.041 | [4] -0.081 | [5] 0.02 | [6] 0.071 | saracatinib -0.138 | sotrastaurin 0.156 | Tubastatin A -0.05 | [7] 0.026 | defactinib 0.046 | rucaparib 0.13 | [8] 0.075 | encorafenib -0.091 | [9] 0.013

HIKESHI (UniProt Q53FT3)
inactive: [1] -0.116 | volasertib -0.178 | [2] 0.022 | epoxomicin -0.013 | [3] 0.001 | [4] 0.008 | [5] -0.018 | [6] 0.077 | saracatinib 0.03 | sotrastaurin 0.043 | Tubastatin A -0.01 | [7] 0.046 | defactinib -0.038 | rucaparib 0.029 | [8] -0.003 | encorafenib 0.024 | [9] 0.028

HMGCLL1 (UniProt Q8TB92)
inactive: [1] 0.018 | [2] 0 | epoxomicin 0.072 | [10] 0.013 | [3] 0.05 | [4] -0.025 | rosiglitazone -0.009 | [5] -0.164 | [6] -0.009 | saracatinib -0.019 | sotrastaurin 0.015 | alvocidib 0.002 | Tubastatin A -0.053 | [7] 0.038 | defactinib -0.045 | rucaparib -0.061 | [8] -0.002 | encorafenib -0.027 | [9] 0.021

HSPA8 (UniProt P11142)
inactive: [1] 0.001 | volasertib 0.113 | [2] -0.007 | epoxomicin 0.008 | [3] -0.002 | [4] -0.037 | [5] -0.034 | [6] 0.079 | saracatinib 0.067 | sotrastaurin 0.007 | Tubastatin A -0.019 | [7] 0.139 | defactinib 0.006 | rucaparib -0.029 | [8] -0.002 | encorafenib -0.009 | [9] 0.042

HMGXB4 (UniProt Q9UGU5)
inactive: [1] 0.01 | volasertib 0.035 | epoxomicin -0.083 | alvocidib 0.128 | rucaparib -0.108 | encorafenib -0.151

HNRNPUL1 (UniProt Q9BUJ2)
inactive: [1] 0.051 | volasertib -0.069 | [2] 0.014 | epoxomicin 0.019 | [3] 0.004 | [4] 0.013 | [5] 0.099 | [6] 0.031 | saracatinib -0.016 | sotrastaurin 0.039 | Tubastatin A 0 | [7] 0.008 | defactinib 0.018 | rucaparib 0.075 | [8] 0.034 | encorafenib 0.063 | [9] -0.011

HIST2H3A (UniProt Q71DI3)
inactive: [1] -0.206 | volasertib 0.111 | [2] -0.023 | epoxomicin -0.003 | [3] 0.315 | [4] -0.124 | [5] 0.56 | [6] 0.09 | saracatinib -0.196 | sotrastaurin 0.063 | Tubastatin A 0.17 | [7] -0.166 | defactinib 0.339 | rucaparib 0.306 | [8] 0.185 | encorafenib -0.063 | [9] 0.093

HNRNPC isoform 2 (UniProt P07910)
inactive: [1] 0.238 | volasertib 0.276 | [2] 0.017 | epoxomicin -0.423 | [3] 0.147 | [4] -0.151 | [5] 0.467 | [6] -0.067 | saracatinib -0.067 | sotrastaurin -0.035 | Tubastatin A 0.219 | [7] 0.033 | defactinib 0.054 | rucaparib 0.392 | [8] 0.115 | encorafenib 0.148 | [9] 0.071

HTD2 (UniProt P86397)
inactive: [1] 0.038 | volasertib 0.011 | epoxomicin 0.169 | [10] 0.064 | [3] -0.21 | [4] -0.01 | rosiglitazone 0.082 | [6] 0.063 | sotrastaurin 0.067 | alvocidib -0.119 | [7] -0.007 | defactinib 0.041 | rucaparib -0.131 | encorafenib 0.006 | [9] 0.001

HNRNPUL1 (UniProt M0R247)
inactive: [1] -0.072 | volasertib 0.16 | [2] -0.101 | [5] 0.21 | saracatinib -0.327 | sotrastaurin 0.128 | Tubastatin A -0.054 | [7] -0.145 | rucaparib 0.09 | [8] -0.431 | encorafenib -0.086

Looked up one by one from above (2):
HMGCLL1 (UniProt Q8TB92)
inactive: [1] 0.018 | [2] 0 | epoxomicin 0.072 | [10] 0.013 | [3] 0.05 | [4] -0.025 | rosiglitazone -0.009 | [5] -0.164 | [6] -0.009 | saracatinib -0.019 | sotrastaurin 0.015 | alvocidib 0.002 | Tubastatin A -0.053 | [7] 0.038 | defactinib -0.045 | rucaparib -0.061 | [8] -0.002 | encorafenib -0.027 | [9] 0.021

HMGXB4 (UniProt Q9UGU5)
inactive: [1] 0.01 | volasertib 0.035 | epoxomicin -0.083 | alvocidib 0.128 | rucaparib -0.108 | encorafenib -0.151

Further results follow.

HNRNPL (UniProt P14866)
inactive: [1] 0.025 | volasertib -0.075 | epoxomicin -0.059 | [10] -0.196 | [3] 0.148 | rosiglitazone 0.013 | [5] 0.327 | [6] 0.031 | saracatinib -0.087 | sotrastaurin -0.216 | alvocidib 0.11 | Tubastatin A 0.072 | [7] 0.034 | rucaparib 0.405 | [8] -0.024 | encorafenib 0.049
